Assay results: article PMC10115415

Assays:
[1] = biological target: T1, Cyp33-WLF (RRM) W101A,L102A,F105A (human) (UniProt Q9UNP9); assay: ITC; settings: structures of complexes: 40 mM KCl, 20 mM KH2PO4 pH 7.0, 310.15 K; recombinant protein; residues 1-114; protein details: AGH N-terminal after intein cleavage
T1 sequence (looked up): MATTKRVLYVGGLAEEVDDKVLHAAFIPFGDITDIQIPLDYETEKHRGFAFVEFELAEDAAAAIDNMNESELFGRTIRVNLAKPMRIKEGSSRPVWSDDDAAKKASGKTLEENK

[2] = biological target: T1, Cyp33-WLF (RRM) W101A,L102A,F105A (human); assay: NMR titration; settings: NMR titrations: 20 mM KHPO4 pH 7, 40 mM KCl, 1 mM DTT; recombinant protein; residues 1-114; protein details: AGH N-terminal after intein cleavage

UAAUGU [UAAUGU RNA]
Kd [1]: 70 µM
Kd [2]: 80 µM

Construct, isoform or probe ends are uncertain for at least one entry. Where a protein sequence is shown, tags need not be part of it.
